Binding data for 2 molecules are collected here from patent publication US20090035308A1.

Sequences of proteins named here, by UniProt entry; tags and fusion partners are left off. A change or cut given only in a name is not applied to a line headed by its entry.
UniProt Q9NR61: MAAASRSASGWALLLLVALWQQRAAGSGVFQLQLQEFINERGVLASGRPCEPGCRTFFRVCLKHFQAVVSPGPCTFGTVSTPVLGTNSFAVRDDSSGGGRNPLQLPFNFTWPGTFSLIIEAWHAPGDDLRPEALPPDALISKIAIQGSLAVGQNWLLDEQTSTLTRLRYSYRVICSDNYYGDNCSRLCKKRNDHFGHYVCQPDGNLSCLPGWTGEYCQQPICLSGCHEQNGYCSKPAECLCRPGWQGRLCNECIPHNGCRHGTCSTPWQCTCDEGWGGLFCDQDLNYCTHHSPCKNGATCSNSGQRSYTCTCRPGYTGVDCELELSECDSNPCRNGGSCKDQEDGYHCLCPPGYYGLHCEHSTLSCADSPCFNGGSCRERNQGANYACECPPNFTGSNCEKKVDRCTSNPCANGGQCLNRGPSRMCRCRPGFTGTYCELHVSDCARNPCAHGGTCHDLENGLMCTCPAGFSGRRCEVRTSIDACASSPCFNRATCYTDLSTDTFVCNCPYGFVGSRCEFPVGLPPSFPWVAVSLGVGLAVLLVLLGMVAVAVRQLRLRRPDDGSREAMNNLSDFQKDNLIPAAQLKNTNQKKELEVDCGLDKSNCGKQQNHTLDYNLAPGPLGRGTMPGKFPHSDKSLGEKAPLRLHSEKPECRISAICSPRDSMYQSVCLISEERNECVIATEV

Assay [1] concerns the target sDll4-AP (extracellular domain of human Dll4 fused to alkaline phosphatase) (human) (UniProt Q9NR61). Nature of the assay: ELISA: 4 ug/ml antibody coated, 20 ng soluble Dll4-AP proteins added. (In general: In an ELISA, binding on a coated surface is turned into a signal by an enzyme label.)
For assay [2] the target is unchanged. Description: ELISA: coated antibody, soluble Dll4 proteins fused with alkaline phosphatase.

Results are given in words; binding and its absence hold for the method and conditions named. Some results given as binding are weak or reduced against the parent protein; the word gives no strength.

B1: Dll4 antibody clone designated #2-6 (antibody, V domains shown)
VH: EVQLQQSGPELEKPGASVKISCKASGYSFTGYNMNWVKQSNGKSLEWIGNIDPYFGGTNYNQKFKGKATLTVDKSSSTAYMQLKSLTSEDSAVYYCARNYDYDGGCFDYWGQGTTLTVSS
VL: QAVVTQESALTTSPGETVTLTCRSSTGAVTTSNYANWVQEKPDHLFTGLIGGTNNRAPGVPARFSGSLIGDKAALTITGAQTEDEAIYFCALWYSNHWVFGGGTKLTVLG
In the case of B1, the binding entry in assay [1] and in assay [2] was “binds” each time.

B2: Dll4 antibody clone designated #61B (antibody, V domains shown)
VH: EVQLQQSGPELVKPGASVKMSCKASGYTFTSYVINWVKQKPGQGLEWIGLINPYNDGTKYNEKFKVKATLTSDKSSSTAYMELSSLTSEDSAVYYCASYYYGSRYYFDYWGQGTTLTVSS
VL: DIQMTQSSSYLSVSLGGRVTITCKASDHINNWLAWYQQKPGNAPRLLISGATSLETGVPSRFSGSGSGKDYTLSITSLQTEDVATYYCQQYWSIPLTFGAGTKLELK
Turning to B2, the binding result in assay [1] and in assay [2] was “binds” in each case.
